Values quoted from earlier work in US8178579B2, “Dioxanes and uses thereof” (President and Fellows of Harvard College, priority 2001, dated 2012).

Test system: α-tubulin deacetylation
Conditions: cited from earlier work

In the case of `O=C(CCCCCCC(=O)Nc1ccccc1)NO` [suberoylanilide hydroxamic acid], the “inhibition of HDAC6, from Koeller et al.” value is listed as “also inhibit HDAC6”.
